Reference: the supplement of paper PMC11150407
Hit rate of the full screen: of about 3,000 compounds, about 45 (2%) showed an effect of 50% or more. This is one part of the list.

test system: MOLM1 and UCSD/AML1 (averaged); test: cell viability relative to DMSO control (POC); higher = less growth inhibition; conditions: 1 µM; 72 h
Experimental: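 Primary viability screen in the 3q26 EVI1-high AML cell lines MOLM1 and UCSD/AML1, compounds at 1 uM for 72 h. ATP CellTiter-Glo read-out given as percent viable over DMSO control (POC), averaged over duplicates. This mapping covers the TimTec NDL-3000 natural derivative library, whose compounds are identified by TimTec catalogue codes (ST...).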

SMILES	cell viability [%]
O.O.[Cl][Cu][Cl].c1cncc(C2CCCCN2)c1 (stereo not given)	104
C/C=C1\C[N+]2(CC)CCC34C(=C(C=O)[C@H]1CC32)Nc1ccccc14 (stereo not given in full)	111
COCCOC(=O)c1c(C)n(Cc2ccc(C(C)(C)C)cc2)c2c1cc(O)c1ccccc12	92.8
O=C1NC(=O)N(Cc2ccccc2)C(=O)/C1=C/c1ccc2c(c1)OCO2	97
CN(CC12CC3CC(CC(C3)C1)C2)C(=O)c1c[nH]c2ccccc12	111
CCOc1ccc(C=C(C#N)C#N)cc1	91.8
COc1cc2c(cc1OC)-c1c(OC)c(OC)cc3c1C(C2)[N+](C)(C)CC3 (stereo not given)	95.6
COCCOC(=O)c1c(C)n(Cc2ccccc2Cl)c2c1cc(O)c1ccccc12	108
N#CC1=C(N)Oc2c(c(=O)oc3ccccc23)C1c1cccc(Br)c1 (stereo not given)	98
C[N+]1(CCOCC2CCC[N+]3(C)CCCCC23)CCCC(c2ccccn2)C1 (stereo not given)	92.5
O=C(O)Cc1cnc[nH]1	95.2
C1CCC(OCC2CCCN3CCCCC23)CC1 (stereo not given)	104
O=c1oc2ccccc2c(O)c1Cc1ccccc1	106
COC(=O)c1ccc(OC)c(OC)c1	96.4
C/C=C1\CN2CCC34c5ccccc5NC3C(CO)[C@H]1CC24 (stereo not given in full)	96.3
O=C1NC(=O)C(=Cc2ccc(O)c(O)c2)C(=O)N1	88.1
NC1CCOC1=O (stereo not given)	99.6
N#CC1=C(N)Oc2c(c(=O)oc3ccccc23)C1c1ccccc1Br (stereo not given)	97.2
COC(=O)C1=C(N)Oc2c(c(=O)oc3ccccc23)C1c1cccc(C(F)(F)F)c1 (stereo not given)	93.2
NCCc1ccc(OCc2ccccc2)c(OCc2ccccc2)c1	96
Cc1ccc2c(c1N)C(=O)c1ccccc1C2=O	79.9
Cc1ccccc1N1C(=O)NC(=O)/C(=C\c2ccc3c(c2)OCO3)C1=O	97.2
CCOC(=O)C1=C(N)Oc2c(c(=O)oc3ccccc23)C1c1ccc(F)cc1F (stereo not given)	94.5

3 entries already listed, sorted by SMILES length, low to high:
SMILES	cell viability [%]
C/C=C1\CN2CCC34c5ccccc5NC3C(CO)[C@H]1CC24 (stereo not given in full)	96.3
CCOC(=O)C1=C(N)Oc2c(c(=O)oc3ccccc23)C1c1ccc(F)cc1F (stereo not given)	94.5
COCCOC(=O)c1c(C)n(Cc2ccc(C(C)(C)C)cc2)c2c1cc(O)c1ccccc12	92.8

Later entries:

SMILES	cell viability [%]
O=C(Cc1c(O)c2ccccc2oc1=O)c1ccc(F)cc1	91
COc1ccc(C(=O)NC(Cc2cnc[nH]2)C(=O)O)cc1 (stereo not given)	93.7
Clc1ccc2[nH]c3c(c2c1)CCNC3	102
COc1ccc(CC(C)NC(=O)C(=O)c2c[nH]c3ccccc23)cc1 (stereo not given)	97.4
COc1cc(C=O)cc(OC)c1OC	102
COc1cccc(C=O)c1OC	104
O=C1CCCC(=O)N1C1CCCN2CCCCC12 (stereo not given)	103
O=c1[nH]c(=O)n(-c2ccc(Br)cc2)c(O)c1/C=C1/C=Nc2ccccc21	97.3
O.O.OCC1CCCN2CCCCC12.[Cl][Cu][Cl] (stereo not given)	110
Cc1c(C(=O)OC(C)(C)C)c2cc(O)c3ccccc3c2n1Cc1ccco1	98.4
CCOC(=O)C1=C(N)Oc2c(c(=O)oc3ccccc23)C1c1cccc(Br)c1 (stereo not given)	103
Nc1ccc2c(c1)C13CCN4CC5=CCOC6CC(=O)N2C1C6C5CC43 (stereo not given)	101
CCOC(=O)C1=C(N)Oc2c(c(=O)oc3ccccc23)C1c1c(F)cccc1Cl (stereo not given)	96.5
CCCC(=O)c1ccc2c(c1)OCO2	104
COc1ccc2[nH]c3c(c2c1)CCNC3	104
COc1cccc(C(O)CNC(C)C)c1 (stereo not given)	101
NCCC(=O)OCC1CCCN2CCCCC12 (stereo not given)	109
O=[N+]([O-])N1CCn2c3c(c4cc(C5CCCCC5)ccc42)CCCC31 (stereo not given)	67.5
CCOC(=O)C1=C(N)Oc2c(c(=O)oc3ccccc23)C1c1ccc(Cl)cc1Cl (stereo not given)	104
CC(C)NCC(O)c1cccc(Cl)c1 (stereo not given)	91.6
CN(N=O)C(=O)NC1OC(CO)C(O)C(O)C1O (stereo not given)	103
O.O.O.O.O.O.O=[N+]([O-])O.O=[N+]([O-])O.OCC1CCCN2CCCCC12.[Co] (stereo not given)	96.8
